Experimental data from PubChem BioAssay AID256 (DTP/NCI, 2004).
The list is a part of this screen's results and no random one: it is rich in T/C values a quarter to a half above the control, in often repeated tests (any T/C) and in doses without a T/C. Further doses and runs are listed elsewhere. T/C gives the treated animals as a percentage of the vehicle group. Some doses have a count of surviving animals in place of a T/C: the source holds a T/C of zero for them, seemingly a mark for toxic or unscored doses. Some survivor counts are full or nearly so, which does not show that the dose was tolerated: the source hardly ever lists a survival T/C far under the control, and the zero likely stands for such cases as well. Survivors were counted at the toxicity check, usually on the fifth day, unless a day is given; later deaths do not show. Schedules are NCI's codes, taken here to give the interval after Q, in days (D) or hours (H), and the number of doses after X. Some doses were run more than once; the results are listed from low to high. Where survival is the endpoint, the PubChem record calls one and a half times the control and up active, and a quarter to a half above the control has no call in these data; cut-offs in other NCI protocols can differ.

Test system: CD2F1 mice, L1210 leukemia ip, survival T/C
Assay: NCI In Vivo Anticancer Drug Screen. Data for tumor model L1210 Leukemia (intraperitoneal) in CD2F1 (CDF1) mice
Conditions: higher T/C = longer survival
In short: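 Compound-dosed mice with transplantable tumor versus matched vehicle controls; endpoint ratio T/C reported.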

[1] = T/C endpoint: mean survival time, dose: 100.0 mg/kg/injection, schedule: Q04DX003 (ip), vehicle: saline with Tween-80
[2] = T/C endpoint: mean survival time, dose: 200.0 mg/kg/injection, schedule: Q04DX003 (ip), vehicle: saline with Tween-80
[3] = T/C endpoint: mean survival time, dose: 400.0 mg/kg/injection, schedule: Q04DX003 (ip), vehicle: saline with Tween-80
[4] = T/C endpoint: mean survival time, dose: 300.0 mg/kg/injection, schedule: Q01DX001 (ip), vehicle: saline
[5] = T/C endpoint: mean survival time, dose: 400.0 mg/kg/injection, schedule: Q01DX001 (ip), vehicle: saline
[6] = T/C endpoint: mean survival time, dose: 200.0 mg/kg/injection, schedule: Q01DX001 (ip), vehicle: saline with Tween-80
[7] = T/C endpoint: mean survival time, dose: 400.0 mg/kg/injection, schedule: Q01DX001 (ip), vehicle: saline with Tween-80
[8] = T/C endpoint: mean survival time, dose: 100.0 mg/kg/injection, schedule: Q01DX009 (ip), vehicle: saline with Tween-80

CCCCNCCC(SSSC(CCNCCCC)c1ccc(Cl)cc1)c1ccc(Cl)cc1 (stereo not drawn)
survivor count [1]: 1 of 6
survivor count [2]: 1 of 6
survivor count [3]: 0 of 6

CCC(C)C1NC(=O)C(NC(=O)c2c3nc4c(C(=O)NC5C(=O)NC(C(C)CC)C(=O)N6CCCC6C(=O)N(C)CC(=O)N(C)C(C(C)C)C(=O)OC5C)cc(N)c(C)c4oc-3c(C)c(=O)c2N)C(C)OC(=O)C(C(C)C)N(C)C(=O)CN(C)C(=O)C2CCCN2C1=O (stereo not drawn)
T/C (T/C endpoint: mean survival time, dose: 100.0 micrograms/kg/injection, schedule: Q01DX009 (ip), vehicle: water): 125 % of control
survivor count (T/C endpoint: mean survival time, dose: 200.0 micrograms/kg/injection, schedule: Q01DX009 (ip), vehicle: water): 6 of 6
survivor count (T/C endpoint: mean survival time, dose: 400.0 micrograms/kg/injection, schedule: Q01DX009 (ip), vehicle: water): 4 of 6
survivor count (T/C endpoint: mean survival time, dose: 800.0 micrograms/kg/injection, schedule: Q01DX009 (ip), vehicle: water): 1 of 6

COc1cc(/C=C/[N+](=O)[O-])cc(Br)c1OC
survivor count (T/C endpoint: median survival time, dose: 50.0 mg/kg/injection, schedule: Q01DX009 (ip), vehicle: saline with Tween-80): 0 of 6
survivor count (T/C endpoint: median survival time, dose: 100.0 mg/kg/injection, schedule: Q01DX009 (ip), vehicle: saline with Tween-80): 0 of 6

NC1=NCN(C2OC(COC(=O)c3ccccc3)C(OC(=O)c3ccccc3)C2OC(=O)c2ccccc2)C(=O)N1 (stereo not drawn)
T/C (T/C endpoint: mean survival time, dose: 200.0 mg/kg/injection, schedule: Q01DX009 (ip), vehicle: saline): 135 % of control

CC(C)(CNC1CCCCC1)OC(=O)c1ccccc1
survivor count [4]: 2 of 6

CCOS(=O)(=O)c1ccc(N)c([N+](=O)[O-])c1
survivor count (T/C endpoint: mean survival time, dose: 400.0 mg/kg/injection, schedule: Q01DX009 (ip), vehicle: Klucel (hydroxypropylcellulose) (HPC)): 3 of 6

COc1cc2c(cc1O)N=C[C@@H]1CCC(O)N1C2=O (mixture of isomers)
T/C (T/C endpoint: mean survival time, dose: 4.0 mg/kg/injection, schedule: Q01DX009 (ip), vehicle: saline): 126 % of control
T/C (T/C endpoint: mean survival time, dose: 8.0 mg/kg/injection, schedule: Q01DX009 (ip), vehicle: saline): 131 % of control
survivor count (T/C endpoint: mean survival time, dose: 16.0 mg/kg/injection, schedule: Q01DX009 (ip), vehicle: saline): 0 of 6 and 3 of 6
survivor count (T/C endpoint: mean survival time, dose: 32.0 mg/kg/injection, schedule: Q01DX009 (ip), vehicle: saline): 0 of 6
T/C (T/C endpoint: median survival time, dose: 3.2 mg/kg/injection, schedule: Q01DX005 (ip), vehicle: saline): 127 % of control
survivor count (T/C endpoint: median survival time, dose: 6.4 mg/kg/injection, schedule: Q01DX005 (ip), vehicle: saline): 3 of 6
survivor count (T/C endpoint: median survival time, dose: 9.6 mg/kg/injection, schedule: Q01DX005 (ip), vehicle: saline): 1 of 6

O=S(=O)(Cl)c1ccc2cc3ccccc3cc2c1
survivor count [5]: 2 of 6

Nc1n[n+](-c2ccccc2)no1
survivor count (T/C endpoint: mean survival time, dose: 50.0 mg/kg/injection, schedule: Q01DX009 (ip), vehicle: water): 6 of 6
survivor count (T/C endpoint: mean survival time, dose: 100.0 mg/kg/injection, schedule: Q01DX009 (ip), vehicle: water): 0 of 6 and 4 of 6

O/N=C/c1ccccc1
survivor count [6]: 3 of 6
survivor count [7]: 0 of 6

NNC(=S)S
survivor count (T/C endpoint: mean survival time, dose: 20.0 mg/kg/injection, schedule: Q01DX001 (ip), vehicle: saline): 3 of 6
survivor count (T/C endpoint: mean survival time, dose: 40.0 mg/kg/injection, schedule: Q01DX001 (ip), vehicle: saline): 0 of 6
survivor count (T/C endpoint: mean survival time, dose: 80.0 mg/kg/injection, schedule: Q01DX001 (ip), vehicle: saline): 0 of 6

O=S=NNc1ccccc1
survivor count [8]: 3 of 6
survivor count (T/C endpoint: mean survival time, dose: 200.0 mg/kg/injection, schedule: Q01DX009 (ip), vehicle: saline with Tween-80): 3 of 6
survivor count [3]: 1 of 6

CCCCCCCCCCCCCCCCCCSc1ccc(Br)cc1
survivor count [6]: 6 of 6

COc1cc(/C=C/c2nc3ccccc3nc2/C=C/c2cc(OC)c(OC)c(OC)c2)cc(OC)c1OC
survivor count [8]: 6 of 6
survivor count [1]: 6 of 6
survivor count [2]: 6 of 6

O=C(NC(Cc1ccc(I)cc1)C(=O)O)c1cccc(Br)c1 (stereo not drawn)
survivor count (T/C endpoint: median survival time, dose: 400.0 mg/kg/injection, schedule: Q01DX009 (ip), vehicle: Klucel (hydroxypropylcellulose) (HPC)): 2 of 6

C#CC(OC(=O)NC1CCCCC1)(c1ccccc1)c1ccccc1
T/C (T/C endpoint: mean survival time, dose: 25.0 mg/kg/injection, schedule: Q01DX009 (ip), vehicle: other): 127 % of control
T/C (T/C endpoint: mean survival time, dose: 50.0 mg/kg/injection, schedule: Q01DX009 (ip), vehicle: other): 129 % of control
survivor count (T/C endpoint: mean survival time, dose: 100.0 mg/kg/injection, schedule: Q01DX009 (ip), vehicle: other): 6 of 6
survivor count (T/C endpoint: mean survival time, dose: 200.0 mg/kg/injection, schedule: Q01DX009 (ip), vehicle: other): 5 of 6

CC(=O)C(C(C)=O)c1ccc([N+](=O)[O-])cc1[N+](=O)[O-].CC(=O)C(C(C)=O)c1ccc([N+](=O)[O-])cc1[N+](=O)[O-].[Cu]
survivor count (T/C endpoint: median survival time, dose: 200.0 mg/kg/injection, schedule: Q04DX002 (ip), vehicle: saline with Tween-80): 3 of 3

C#CC1(NC(=O)NC(C)(C)C)CCCCC1
survivor count (T/C endpoint: mean survival time, dose: 400.0 mg/kg/injection, schedule: Q01DX009 (ip), vehicle: saline with Tween-80): 2 of 3

N/N=C\C(=N/N)C(O)C(O)C(O)CO (stereo not drawn)
survivor count [6]: 3 of 3
survivor count [7]: 3 of 3

CC(=O)Oc1cccc2cc3cc(C)cc(OC(C)=O)c3c(OC(C)=O)c12
survivor count (T/C endpoint: mean survival time, dose: 100.0 mg/kg/injection, schedule: Q01DX001 (ip), vehicle: saline): 0 of 6
survivor count (T/C endpoint: mean survival time, dose: 200.0 mg/kg/injection, schedule: Q01DX001 (ip), vehicle: saline): 0 of 6
survivor count [5]: 0 of 6

CO/N=C(/c1ccccc1)c1cccc[n+]1C
survivor count (T/C endpoint: mean survival time, dose: 150.0 mg/kg/injection, schedule: Q01DX001 (ip), vehicle: saline): 0 of 6
survivor count [4]: 0 of 6

COc1cc(CNC(=O)/C(C)=C/Cl)ccc1O
survivor count [1]: 6 of 6
survivor count [2]: 3 of 6
survivor count [3]: 1 of 6

Cc1cc([N+](=O)[O-])c2ccccc2[n+]1[O-]
survivor count [2]: 5 of 6
survivor count [3]: 0 of 6

Nc1nc2c(ncn2CCCc2ccccc2)c(=O)[nH]1
survivor count [7]: 3 of 6

Cc1cccc(CN=C(N)CCl)n1
survivor count (T/C endpoint: mean survival time, dose: 400.0 mg/kg/injection, schedule: Q04DX002 (ip), vehicle: saline): 0 of 3

N#CC1CC=CCC1 (stereo not drawn)
survivor count (T/C endpoint: mean survival time, dose: 50.0 mg/kg/injection, schedule: Q04DX003 (ip), vehicle: saline): 6 of 6
survivor count (T/C endpoint: mean survival time, dose: 100.0 mg/kg/injection, schedule: Q04DX003 (ip), vehicle: saline): 3 of 6
survivor count (T/C endpoint: mean survival time, dose: 200.0 mg/kg/injection, schedule: Q04DX003 (ip), vehicle: saline): 0 of 6

CN(C)C(=O)N(CCCl)N=O
T/C (T/C endpoint: mean survival time, dose: 10.0 mg/kg/injection, schedule: Q01DX001 (ip), vehicle: other): 139 % of control
survivor count (T/C endpoint: mean survival time, dose: 37.5 mg/kg/injection, schedule: Q01DX001 (ip), vehicle: water): 3 of 3
survivor count (T/C endpoint: mean survival time, dose: 64.0 mg/kg/injection, schedule: Q01DX001 (ip), vehicle: other): 6 of 6
survivor count (T/C endpoint: mean survival time, dose: 75.0 mg/kg/injection, schedule: Q01DX001 (ip), vehicle: water): 2 of 3
survivor count (T/C endpoint: mean survival time, dose: 150.0 mg/kg/injection, schedule: Q01DX001 (ip), vehicle: water): 2 of 3
survivor count (T/C endpoint: mean survival time, dose: 300.0 mg/kg/injection, schedule: Q01DX001 (ip), vehicle: water): 2 of 3

Oc1ccccc1/C=N/c1nc(-c2ccccc2)cs1.[Co].[O-]c1ccccc1/C=N/c1nc(-c2ccccc2)cs1
survivor count (T/C endpoint: mean survival time, dose: 100.0 mg/kg/injection, schedule: Q01DX001 (ip), vehicle: saline with Tween-80): 3 of 3

Nc1cc(Cl)c(Cl)cc1S(=O)(=O)NO
survivor count [2]: 6 of 6

N=C(N)c1cc(Cl)c(OCc2ccccc2)c(Cl)c1
survivor count [1]: 4 of 6

CCC(C)C(NC(=O)OCc1ccccc1)C(=O)NC(C(=O)NC(CCC(=O)OC(C)(C)C)C(=O)OC)C(C)C (stereo not drawn)
survivor count (T/C endpoint: mean survival time, dose: 200.0 mg/kg/injection, schedule: Q04DX003 (ip), vehicle: saline sonified): 6 of 6
